Source: PubChem BioAssay AID1159578 (Peter MacCallum Cancer Centre, 2015)
The whole screen tested about 18,000 reagents; shown is a part drawn at random. In the full data, about 1,030 (5.7%) are marked active. 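Inactive calls also include pools with fewer than 3300 nuclei, whose migration was not assessed.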 Raw values are not corrected between plates.

Aim: 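siRNA pools altering how lymphatic endothelial cells close a scratch wound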 (primary screen)
Cell system: human lymphatic endothelial cells
Knock-down reagent: siRNA pool against human genes, 40 nM
Duration: 48 h after transfection
Detection: 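High-content imaging of dye-stained cells in a scratch assay measures filled wound area and nuclei per well; duplicate means given as ratio to mock and robust z-score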
Direction: migration robust z-score: higher = faster migration into the scratch; migration relative to mock: higher = more scratch area covered than mock; nuclei per well: higher = more cells in the well
Active means: 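Pools averaging fewer than 3300 nuclei are never called; remaining pools count as changed when migration robust z lies outside -2 to 2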
Meaning of the calls: active = migration changed; inactive = no migration change, or too few cells

gene knocked down | migration robust z-score | migration class with cell-count check | migration relative to mock | nuclei per well, duplicate mean | call
IGF2-AS | -0.08 | migration z between -2 and 2; enough cells | 0.86 | 5572 | inactive
UEVLD | -0.93 | migration z between -2 and 2; enough cells | 0.62 | 6128 | inactive
MCOLN3 | -1.12 | migration z between -2 and 2; enough cells | 0.59 | 4443 | inactive
RIT2 | -0.47 | migration z between -2 and 2; enough cells | 0.72 | 6116 | inactive
MOB1A | 1.74 | migration z between -2 and 2; enough cells | 1.34 | 7244 | inactive
ARHGAP22 | -0.32 | migration z between -2 and 2; enough cells | 0.8 | 6812 | inactive
HYAL3 | -0.67 | migration z between -2 and 2; enough cells | 0.68 | 6278 | inactive
CIRBP-AS1 | -0.26 | migration z between -2 and 2; enough cells | 0.82 | 6150 | inactive
ARPC2 | -1.16 | migration z between -2 and 2; enough cells | 0.58 | 5082 | inactive
TAF7L | 0.42 | migration z between -2 and 2; enough cells | 0.88 | 5841 | inactive
MINDY2 | -1.68 | migration z between -2 and 2; enough cells | 0.45 | 6780 | inactive
KCNAB1 | -1.15 | migration z between -2 and 2; enough cells | 0.58 | 4476 | inactive
MYADM | -0.98 | migration z between -2 and 2; enough cells | 0.63 | 4688 | inactive
OAZ3 | 0.62 | migration z between -2 and 2; enough cells | 0.92 | 5352 | inactive
MYO9A | -0.18 | migration z between -2 and 2; enough cells | 0.84 | 6303 | inactive
CLDN11 | 0.19 | migration z between -2 and 2; enough cells | 0.94 | 6074 | inactive
BCL2L11 | -0.46 | migration z between -2 and 2; enough cells | 0.72 | 6217 | inactive
GREM1 | -0.21 | migration z between -2 and 2; enough cells | 0.83 | 5078 | inactive
CCDC68 | 1.49 | migration z between -2 and 2; enough cells | 1.27 | 5465 | inactive
SRM | -2.05 | migration z below -2; enough cells | 0.41 | 5080 | active
TAS2R43 | -0.34 | migration z between -2 and 2; enough cells | 0.8 | 6128 | inactive
NLRP6 | 0.77 | migration z between -2 and 2; enough cells | 1.08 | 5177 | inactive
SLC26A6 | -0.4 | migration z between -2 and 2; enough cells | 0.78 | 5491 | inactive
CLSTN2 | -1.19 | migration z between -2 and 2; enough cells | 0.57 | 6862 | inactive
PRRC1 | 0.1 | migration z between -2 and 2; enough cells | 0.91 | 4458 | inactive
TGIF2 | 0.34 | migration z between -2 and 2; enough cells | 0.87 | 4862 | inactive
GEM | -0.88 | migration z between -2 and 2; enough cells | 0.64 | 6318 | inactive
EXT2 | 1.3 | migration z between -2 and 2; enough cells | 1.06 | 6634 | inactive
ATP6V1B2 | 0.46 | migration z between -2 and 2; enough cells | 0.9 | 6462 | inactive
RASD2 | -0.86 | migration z between -2 and 2; enough cells | 0.66 | 4174 | inactive
NUMB | -0.42 | migration z between -2 and 2; enough cells | 0.72 | 4205 | inactive
MREG | -0.16 | migration z between -2 and 2; enough cells | 0.84 | 5536 | inactive
MCF2L2 | 0.88 | migration z between -2 and 2; enough cells | 0.98 | 6197 | inactive
GTF2B | 2.21 | migration z above 2; enough cells | 1.23 | 5866 | active
CSTPP1 | -0.18 | migration z between -2 and 2; enough cells | 0.84 | 5926 | inactive
MPP3 | -2.41 | migration z below -2; enough cells | 0.34 | 3472 | active
RAMP2 | 0.83 | migration z between -2 and 2; enough cells | 0.96 | 5202 | inactive
DIRAS3 | -0.13 | migration z between -2 and 2; enough cells | 0.78 | 5736 | inactive
LY75 | 1.02 | migration z between -2 and 2; enough cells | 1.15 | 6011 | inactive
MPND | 0.02 | migration z between -2 and 2; enough cells | 0.89 | 4566 | inactive
IQCF1 | 0.69 | migration z between -2 and 2; enough cells | 1.06 | 6441 | inactive
CLUL1 | -1.6 | migration z between -2 and 2; enough cells | 0.47 | 6240 | inactive
CHTF8 | 0.27 | migration z between -2 and 2; enough cells | 0.96 | 6416 | inactive
ABCF3 | -0.47 | migration z between -2 and 2; enough cells | 0.72 | 4682 | inactive
SSU72 | -1.99 | migration z between -2 and 2; enough cells | 0.37 | 5654 | inactive
SCN8A | 0.44 | migration z between -2 and 2; enough cells | 0.89 | 4786 | inactive
ZNF461 | 0.64 | migration z between -2 and 2; enough cells | 1.05 | 6529 | inactive
MVD | -0.28 | migration z between -2 and 2; enough cells | 0.82 | 4952 | inactive
MEGF9 | 0.74 | migration z between -2 and 2; enough cells | 1.07 | 6349 | inactive
LSM14B | -0.46 | migration z between -2 and 2; enough cells | 0.76 | 4658 | inactive
PRDM1 | -0.44 | migration z between -2 and 2; enough cells | 0.72 | 4424 | inactive
GPR65 | 0.05 | migration z between -2 and 2; enough cells | 0.82 | 6702 | inactive
CAMSAP2 | 0.57 | migration z between -2 and 2; enough cells | 1.03 | 5259 | inactive
POU1F1 | 0.52 | migration z between -2 and 2; enough cells | 0.9 | 5485 | inactive
USP22 | -0.42 | migration z between -2 and 2; enough cells | 0.73 | 5886 | inactive
AKR1C3 | -1.53 | migration z between -2 and 2; enough cells | 0.51 | 4436 | inactive
KCNK10 | -0.1 | migration z between -2 and 2; enough cells | 0.78 | 4191 | inactive
AQP12A | -1.2 | under 3300 nuclei; migration not judged | 0.57 | 3254 | inactive
OR5M8 | 0.95 | migration z between -2 and 2; enough cells | 1.12 | 6354 | inactive
GPR139 | -0.05 | migration z between -2 and 2; enough cells | 0.8 | 5817 | inactive
KIF1B | -0.49 | migration z between -2 and 2; enough cells | 0.71 | 5170 | inactive
TBL1XR1 | -0.5 | migration z between -2 and 2; enough cells | 0.76 | 5114 | inactive
COPS9 | -0.58 | migration z between -2 and 2; enough cells | 0.74 | 5928 | inactive
ACOX2 | 0.2 | migration z between -2 and 2; enough cells | 0.84 | 4644 | inactive
RHOT2 | 0.44 | migration z between -2 and 2; enough cells | 1 | 6724 | inactive
HDGFL2 | -0.96 | migration z between -2 and 2; enough cells | 0.64 | 5466 | inactive
ZNF138 | 1.13 | migration z between -2 and 2; enough cells | 1.18 | 6456 | inactive
IQCH | 0.4 | migration z between -2 and 2; enough cells | 0.99 | 5848 | inactive
RTN4 | 0.96 | migration z between -2 and 2; enough cells | 1.13 | 6533 | inactive
SNRK | -1.06 | migration z between -2 and 2; enough cells | 0.6 | 5992 | inactive
CT47A2 | -2.44 | migration z below -2; enough cells | 0.25 | 5108 | active
ZHX2 | -0.26 | migration z between -2 and 2; enough cells | 0.76 | 4878 | inactive
MAGEA8 | 0.74 | migration z between -2 and 2; enough cells | 1.07 | 8138 | inactive
